PubChem BioAssay AID1259308, NCATS | 2017
This is one part, drawn at random, of about 59,000 reagents. Over the whole deposit, about 1,510 (2.6%) were called active. 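Calls use total luciferase alone and ignore viability, so some active siRNAs may act by altering cell number.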 The numbers tell different reagents against one gene apart.

Aim: 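Genes whose loss raises luciferase production in HEK293 cells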 (primary screen)
Cell system: human HEK293 embryonic kidney cells stably expressing firefly luciferase (HEK-CMV-Luc2-Hygro)
Knock-down reagent: single siRNA against human genes, 0.8 pmol siRNA per well
Time to read-out: 72 h
Measured: 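Reporter luminescence and viable-cell signal on separate replicate plates, given as percent of non-targeting control and median/MAD z-scores, plus per-cell luciferase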
Reading the numbers: total luciferase, z-score and total luciferase, % of control: higher = more reporter protein produced; luciferase per cell, z-score: higher = more reporter output per viable cell; viable cells, % of control: higher = more viable cells
Hit rule: 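Active when the median/MAD z-score for overall luciferase is greater than 3; a gene was taken forward for validation with new siRNAs if at least two of its three siRNAs passed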
Calls: active = raised luciferase; inactive = no rise

gene symbol | reagent no. | total luciferase, z-score | total luciferase, % of control | luciferase per cell, z-score | viable cells, % of control | activity call
CACHD1 | 1 | 0.141 | 84.7 | 0.826 | 76.1 | inactive
CACHD1 | 2 | 1.93 | 120 | 1.12 | 100 | inactive
CACHD1 | 3 | 0.113 | 84.1 | -0.458 | 106 | inactive
EPHA4 | 1 | 0.337 | 88.6 | 1.18 | 72.5 | inactive
EPHA4 | 2 | 0.283 | 87.5 | 0.808 | 79.1 | inactive
EPHA4 | 3 | -1.15 | 59 | -1.39 | 95.2 | inactive
TMCO4 | 1 | 1.43 | 110 | 1.59 | 81.1 | inactive
TMCO4 | 2 | -0.0576 | 80.7 | -0.474 | 102 | inactive
TMCO4 | 3 | -1.18 | 58.4 | -1.7 | 102 | inactive
ARL6IP1 | 1 | -2.02 | 41.7 | -1.86 | 76 | inactive
ARL6IP1 | 2 | -1.7 | 48.1 | -2.24 | 96.8 | inactive
ARL6IP1 | 3 | -1.73 | 47.4 | -1.36 | 75.7 | inactive
COL6A1 | 1 | 0.882 | 99.4 | 0.638 | 93.9 | inactive
COL6A1 | 2 | 0.728 | 96.4 | 2.77 | 51.9 | inactive
COL6A1 | 3 | 0.473 | 91.3 | 0.289 | 94.5 | inactive
MB21D2 | 1 | -1.16 | 58.9 | -1.42 | 95.7 | inactive
MB21D2 | 2 | -1.02 | 61.6 | -0.603 | 80.7 | inactive
MB21D2 | 3 | -0.213 | 77.7 | -0.185 | 91.1 | inactive
POLR1C | 1 | -0.831 | 65.4 | 0.19 | 69.5 | inactive
POLR1C | 2 | 0.599 | 93.8 | 0.339 | 95.9 | inactive
POLR1C | 3 | 1.46 | 111 | 1.13 | 92.1 | inactive
WDR46 | 1 | -0.348 | 75 | -0.297 | 90.6 | inactive
WDR46 | 2 | -1.9 | 44.1 | -2.19 | 87.8 | inactive
WDR46 | 3 | -2.16 | 39 | -2.45 | 83.1 | inactive
ZNF706 | 1 | -0.28 | 76.3 | 2.43 | 45 | inactive
ZNF706 | 2 | 2.93 | 140 | 2.24 | 86.9 | inactive
ZNF706 | 3 | -0.0874 | 80.1 | -0.205 | 94.5 | inactive
FA2H | 1 | -0.327 | 75.4 | -1.15 | 114 | inactive
FA2H | 2 | 0.393 | 89.7 | -0.0515 | 102 | inactive
FA2H | 3 | 1.2 | 106 | 1.71 | 75.4 | inactive
VTI1A | 1 | 0.955 | 101 | 0.681 | 94.2 | inactive
VTI1A | 2 | 0.532 | 92.5 | 0.12 | 100 | inactive
VTI1A | 3 | -0.656 | 68.8 | -1.04 | 101 | inactive
TRMT5 | 1 | 0.443 | 90.7 | 0.265 | 94.5 | inactive
TRMT5 | 2 | -0.365 | 74.6 | -0.00126 | 83.4 | inactive
TRMT5 | 3 | -0.559 | 70.8 | -0.359 | 86.9 | inactive
MRPL48 | 1 | 0.525 | 92.3 | 0.735 | 85 | inactive
MRPL48 | 2 | -1.06 | 60.9 | -1.57 | 103 | inactive
MRPL48 | 3 | -0.711 | 67.7 | 0.203 | 71.8 | inactive

Part of the list above in another layout:
gene symbol	reagent no.	total luciferase, z-score	total luciferase, % of control	luciferase per cell, z-score	viable cells, % of control	activity call
WDR46	3	-2.16	39	-2.45	83.1	inactive
ZNF706	1	-0.28	76.3	2.43	45	inactive
ZNF706	2	2.93	140	2.24	86.9	inactive
ZNF706	3	-0.0874	80.1	-0.205	94.5	inactive
